Source: patent US20020065210A1
These are yes or no findings as the source states them, for the method shown. For some assays here: In cells and extracts the contact can be indirect. Some binding calls cover weakened binding; strength is not graded here. Sequences can lack the tags named with a protein.

Amino acid sequences for entries named in this document (tags omitted). Residues count along the entry.
UniProt P48023, residues 103-281: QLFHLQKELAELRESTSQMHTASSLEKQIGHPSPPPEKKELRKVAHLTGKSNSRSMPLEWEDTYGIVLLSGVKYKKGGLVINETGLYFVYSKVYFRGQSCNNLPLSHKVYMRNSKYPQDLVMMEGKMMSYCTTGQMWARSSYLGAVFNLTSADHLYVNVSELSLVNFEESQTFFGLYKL
UniProt O43557: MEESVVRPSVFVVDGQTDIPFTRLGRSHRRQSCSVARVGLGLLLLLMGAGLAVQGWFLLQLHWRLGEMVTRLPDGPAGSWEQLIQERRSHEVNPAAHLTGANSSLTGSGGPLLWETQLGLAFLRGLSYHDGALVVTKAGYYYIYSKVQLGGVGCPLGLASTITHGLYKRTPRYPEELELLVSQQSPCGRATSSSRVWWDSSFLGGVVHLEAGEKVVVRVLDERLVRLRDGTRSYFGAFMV

Key:
[1] = target: purified, soluble Fas ligand (Alexis Biochemicals) (UniProt P48023); assay: co-immunoprecipitation with protein A-sepharose, anti-Fas ligand immunoblot
[2] = target: full-length LIGHT expressed from pRK5 on transiently transfected 293 cells (UniProt O43557); assay: FACS, biotinylated Fc-tagged DcR3 on transiently transfected 293 cells, streptavidin-phycoerythrin (data not shown)

binding [1]: binds
binding [2]: binds
B1: recombinant Fc-tagged DcR3 (expressed as described in Example 7, purified by Protein A chromatography) (Fc fusion, not shown: a dimerising Fc or GST)
chain: VAETPTYPWRDAETGERLVCAQCPPGTFVQRPCRRDSPTTCGPCPPRHYTQFWNYLERCRYCNVLCGEREEEARACHATHNRACRCRTGFFAHAGFCLEHASCPPGAGVIAPGTPSQNTQCQPCPPGTFSASSSSSEQCQPHRNCTALGLALNVPGSSSHDTLCTSCTGFPLSTRVPGAEECERAVIDFVAFQDISIKRLQRLLQALEAPEGWGPTPRAGRAALQLKLRRRLTELLGAQDGALLVRLLQALRVARMPGLERSVRERFLPVH
modifications: biotinylated in the FACS assay (sites not given)
